PubChem BioAssay AID1508597 – Cure First | 2020
This is one part, drawn at random, of about 2,100 reagents. 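Calls flag viability under 80% in either arm, not effects specific to rucaparib; the reference for percent is not stated.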 Unmarked entries are inactive. Some reagents were tested in more than one well and are listed for each. Reagent sequences are not shown. Not stated in the record: the 100% reference.

- Assay: 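Genes whose silencing sensitises or protects ovarian cancer cells against rucaparib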 (primary screen)
- Cells: human ovarian carcinoma lines grown from tumours: OCI-P5x (papillary serous) and OCI-C5x (clear cell)
- Reagents: siRNA pool against human genes, 1.25 pmol siRNA per well
- Timing: 72 h or 96 h, depending on the cell culture
- Challenge: rucaparib 20 µM (about IC30) or vehicle, present until read-out
- Measured: 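ATP luminescence measured at 72 or 96 h according to the culture, then normalised and expressed as percent viability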
- Scale: viability, normalised: higher = more viable cells remaining
- Hit rule: 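a well counts as a hit if its normalised viability is under 80 percent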
- Meaning of the calls: active = viability under 80%; inactive = viability 80% or more

Gene	rucaparib or vehicle	cell line	technical replicate	viability, normalised (%)
KIF18A (kinesin family member 18A)	Rucaparib	OCI-C5x (clear cell)	1	53.5 (active)
KIF18A (kinesin family member 18A)	Rucaparib	OCI-C5x (clear cell)	1	56.2 (active)
KIF18A (kinesin family member 18A)	Rucaparib	OCI-C5x (clear cell)	2	52.3 (active)
KIF18A (kinesin family member 18A)	Rucaparib	OCI-C5x (clear cell)	2	77.5 (active)
KIF18A (kinesin family member 18A)	Rucaparib	OCI-C5x (clear cell)	3	72.9 (active)
KIF18A (kinesin family member 18A)	Rucaparib	OCI-C5x (clear cell)	3	44.2 (active)
KIF18A (kinesin family member 18A)	Rucaparib	OCI-P5x (serous)	1	49.9 (active)
KIF18A (kinesin family member 18A)	Rucaparib	OCI-P5x (serous)	1	57.3 (active)
KIF18A (kinesin family member 18A)	Rucaparib	OCI-P5x (serous)	2	49.1 (active)
KIF18A (kinesin family member 18A)	Rucaparib	OCI-P5x (serous)	2	78.6 (active)
KIF18A (kinesin family member 18A)	Rucaparib	OCI-P5x (serous)	3	82.9
KIF18A (kinesin family member 18A)	Rucaparib	OCI-P5x (serous)	3	47.8 (active)
KIF18A (kinesin family member 18A)	Vehicle	OCI-C5x (clear cell)	1	69.1 (active)
KIF18A (kinesin family member 18A)	Vehicle	OCI-C5x (clear cell)	1	66 (active)
KIF18A (kinesin family member 18A)	Vehicle	OCI-C5x (clear cell)	2	37 (active)
KIF18A (kinesin family member 18A)	Vehicle	OCI-C5x (clear cell)	2	53.3 (active)
KIF18A (kinesin family member 18A)	Vehicle	OCI-C5x (clear cell)	3	59.8 (active)
KIF18A (kinesin family member 18A)	Vehicle	OCI-C5x (clear cell)	3	42 (active)
KIF18A (kinesin family member 18A)	Vehicle	OCI-P5x (serous)	1	33.6 (active)
KIF18A (kinesin family member 18A)	Vehicle	OCI-P5x (serous)	1	62.3 (active)
KIF18A (kinesin family member 18A)	Vehicle	OCI-P5x (serous)	2	54.1 (active)
KIF18A (kinesin family member 18A)	Vehicle	OCI-P5x (serous)	2	37.1 (active)
KIF18A (kinesin family member 18A)	Vehicle	OCI-P5x (serous)	3	35.4 (active)
KIF18A (kinesin family member 18A)	Vehicle	OCI-P5x (serous)	3	64.2 (active)
ACTR5 (actin related protein 5)	Rucaparib	OCI-C5x (clear cell)	1	68.2 (active)
ACTR5 (actin related protein 5)	Rucaparib	OCI-C5x (clear cell)	2	59.2 (active)
ACTR5 (actin related protein 5)	Rucaparib	OCI-C5x (clear cell)	3	54.1 (active)
ACTR5 (actin related protein 5)	Rucaparib	OCI-P5x (serous)	1	60.3 (active)
ACTR5 (actin related protein 5)	Rucaparib	OCI-P5x (serous)	2	62.5 (active)
ACTR5 (actin related protein 5)	Rucaparib	OCI-P5x (serous)	3	57.7 (active)
ACTR5 (actin related protein 5)	Vehicle	OCI-C5x (clear cell)	1	45.4 (active)
ACTR5 (actin related protein 5)	Vehicle	OCI-C5x (clear cell)	2	40 (active)
ACTR5 (actin related protein 5)	Vehicle	OCI-C5x (clear cell)	3	30.9 (active)
ACTR5 (actin related protein 5)	Vehicle	OCI-P5x (serous)	1	47.9 (active)
ACTR5 (actin related protein 5)	Vehicle	OCI-P5x (serous)	2	49.2 (active)
ACTR5 (actin related protein 5)	Vehicle	OCI-P5x (serous)	3	60.4 (active)
FOS (Fos proto-oncogene, AP-1 transcription factor subunit)	Rucaparib	OCI-C5x (clear cell)	1	40 (active)
FOS (Fos proto-oncogene, AP-1 transcription factor subunit)	Rucaparib	OCI-C5x (clear cell)	2	56.5 (active)
FOS (Fos proto-oncogene, AP-1 transcription factor subunit)	Rucaparib	OCI-C5x (clear cell)	3	54.8 (active)
FOS (Fos proto-oncogene, AP-1 transcription factor subunit)	Rucaparib	OCI-P5x (serous)	1	61.2 (active)
FOS (Fos proto-oncogene, AP-1 transcription factor subunit)	Rucaparib	OCI-P5x (serous)	2	66.2 (active)
FOS (Fos proto-oncogene, AP-1 transcription factor subunit)	Rucaparib	OCI-P5x (serous)	3	82.6
FOS (Fos proto-oncogene, AP-1 transcription factor subunit)	Vehicle	OCI-C5x (clear cell)	1	37.1 (active)
FOS (Fos proto-oncogene, AP-1 transcription factor subunit)	Vehicle	OCI-C5x (clear cell)	2	29.5 (active)
FOS (Fos proto-oncogene, AP-1 transcription factor subunit)	Vehicle	OCI-C5x (clear cell)	3	59.3 (active)
FOS (Fos proto-oncogene, AP-1 transcription factor subunit)	Vehicle	OCI-P5x (serous)	1	73.9 (active)
FOS (Fos proto-oncogene, AP-1 transcription factor subunit)	Vehicle	OCI-P5x (serous)	2	63.7 (active)
FOS (Fos proto-oncogene, AP-1 transcription factor subunit)	Vehicle	OCI-P5x (serous)	3	65.6 (active)

An excerpt of the results above, for reference:
Gene	rucaparib or vehicle	cell line	technical replicate	viability, normalised (%)
ACTR5 (actin related protein 5)	Rucaparib	OCI-P5x (serous)	3	57.7 (active)
ACTR5 (actin related protein 5)	Vehicle	OCI-C5x (clear cell)	1	45.4 (active)
ACTR5 (actin related protein 5)	Vehicle	OCI-C5x (clear cell)	2	40 (active)
ACTR5 (actin related protein 5)	Vehicle	OCI-C5x (clear cell)	3	30.9 (active)
